For some assays here: One purity is given for all peptides; the source may state it once. *: point of attachment. Myristoyl = CCCCCCCCCCCCCC(=O)*

One data set is described as follows: general procedure: Fmoc solid-phase peptide synthesis; Fmoc-Rink Amide AM polystyrene resin; HypoGel HMBA resin; Fmoc-Cys(Trt) or Fmoc-Lys(Boc) Wang polystyrene resin; HBTU/DIPEA. The following applies: conjugation step, analytical LC/MS using RP-HPLC (Eclipse XDB-Phenyl column).
Take POB2K-Orn-K-K(Vancomycin)-NHMe: the “final HPLC purity” value is greater than 95%.

Take POB2K-K-Dab-K(Vancomycin)-NHMe: the “final HPLC purity” value is reported as greater than 95%.

As for nC10CO-GSKKK-K-(Vancomycin)-OH, the “final HPLC purity” value is recorded as greater than 95%.

In the case of “4-Ph-Bz-GSSKSPSKKKKKKPGDC(SCH 2 CH 2 NH-Vancomycin)-NH 2”, the “final HPLC purity” value is on record as greater than 95%.

As to “nC13CO-GSKKKC(SCH 2 CH 2 NH-Vancomycin)-NH 2”, the “final HPLC purity” value was greater than 95%.

For “nC13CO-GSKKKC(SCH 2 CH 2 NH-Vancomycin)-OH”, the “final HPLC purity” value is listed as greater than 95%.

nC13CO-GSKKK-K(Vancomycin)-OH: the “final HPLC purity” value is on record as greater than 95%.

On to “nC13CO-GSSKSPSKKKKKKPGDC(SCH 2 CH 2 NH-Vancomycin)-NH 2”, for which the “final HPLC purity” value is on record as greater than 95%.

In the case of POB2K-K-Orn-K(Vancomycin)-NHMe, the “final HPLC purity” value was greater than 95%.

“nC9CO-GSSKSPSKKKKKKPGDC(SCH2CH2NH-Vancomycin)-NH2”: the “final HPLC purity” value is recorded as greater than 95%.

As to POB2K-KK-Orn(Vancomycin)-NHMe, the “final HPLC purity” value is listed as greater than 95%.

Consider POB2K-Dap-K-K(Vancomycin)-NHMe, for which the “final HPLC purity” value was greater than 95%.

Take “nC13CO-GSSKSPSKKKPGDC(SCH 2 CH 2 NH-Vancomycin)-NH 2”: the “final HPLC purity” value was greater than 95%.

For POB2K-K-Dap-K(Vancomycin)-NHMe, the “final HPLC purity” value is recorded as greater than 95%.

POB2K-Dab-K-K(Vancomycin)-NHMe: the “final HPLC purity” value is given as greater than 95%.

Take “nC13CO-GSSKSPSKKKPC(SCH 2 CH 2 NH-Vancomycin)-NH 2”: the “final HPLC purity” value is reported as greater than 95%.

In the case of POB2K-Dap-Dap-K(Vancomycin)-NHMe, the “final HPLC purity” value is listed as greater than 95%.

Turning to POB2K-Orn-Orn-K(Vancomycin)-NHMe, the “final HPLC purity” value was greater than 95%.

As for “nC15CO-GSSKSPSKKKKKKPGDC(SCH 2 CH 2 NH-Vancomycin)-NH 2”, the “final HPLC purity” value is greater than 95%.

Regarding “nC11CO-GSSKSPSKKKKKKPGDC(SCH 2 CH 2 NH-Vancomycin)-NH 2”, the “final HPLC purity” value is given as greater than 95%.

Still in this data set, the particulars now being: whole synthesis, analytical LC/MS using RP-HPLC (Eclipse XDB-Phenyl column).
For Myristoyl-GSKKKC-NH2, the “final HPLC purity” value was greater than 95%.

With Myristoyl-KKKC-OH – disulphide dimer, the “final HPLC purity” value was greater than 95%.

Consider Myristoyl-GSSKSPSKKKPC-NH2, for which the “final HPLC purity” value is given as greater than 95%.

In the case of Myristoyl-GSKKKC-OH, the “final HPLC purity” value is reported as greater than 95%.

For Myristoyl-GSSKSPSKKKKKKPGDC-NH2, the “final HPLC purity” value is given as greater than 95%.

A further data set can be described thus: ITC dimer-monomer dissociation. It is filed as binding. The following applies: no ligand, 25 °C, 0.1 M NaOAc, pH 5.0.
The molecule `CN[C@H](CC(C)C)C(=O)N[C@H]1C(=O)N[C@@H](CC(N)=O)C(=O)N[C@H]2C(=O)N[C@H]3C(=O)N[C@H](C(=O)N[C@H](C(=O)O)c4cc(O)cc(O)c4-c4cc3ccc4O)[C@H](O)c3ccc(c(Cl)c3)Oc3cc2cc(c3O[C@@H]2O[C@H](CO)[C@@H](O)[C@H](O)[C@H]2O[C@H]2C[C@](C)(N)[C@H](O)[C@H](C)O2)Oc2ccc(cc2Cl)[C@H]1O` [Compound 1, Vancomycin] registered a TΔSdim of 1.17 ± 0.17 kcal/mol, a ΔGdim of -3.92 ± 0.072 kcal/mol and a ΔHdim of -2.75 ± 0.12 kcal/mol.

The same data set, now with this note: no ligand, 25 °C, 0.1 M NaOAc, pH 5.0, ITC.
The molecule `CN[C@H](CC(C)C)C(=O)N[C@H]1C(=O)N[C@@H](CC(N)=O)C(=O)N[C@H]2C(=O)N[C@H]3C(=O)N[C@H](C(=O)N[C@H](C(=O)O)c4cc(O)cc(O)c4-c4cc3ccc4O)[C@H](O)c3ccc(c(Cl)c3)Oc3cc2cc(c3O[C@@H]2O[C@H](CO)[C@@H](O)[C@H](O)[C@H]2O[C@H]2C[C@](C)(N)[C@H](O)[C@H](C)O2)Oc2ccc(cc2Cl)[C@H]1O` [Compound 1, Vancomycin] displayed a Kdim of 750 ± 80 M⁻¹.

The values are drawn from publication PMC5750218 (Nature Communications, 2018).
